Test results: the supplement of paper PMC6411743
± gives the standard deviation of the averaged measurements. This is a selection; strong and weak results do not stand in their true shares.

By UniProt entry, the sequences of proteins in these tests, tags left out. Where a name states a change or a piece, a line headed by the entry shows the natural chain unless it says otherwise.
UniProt Q9P2K5: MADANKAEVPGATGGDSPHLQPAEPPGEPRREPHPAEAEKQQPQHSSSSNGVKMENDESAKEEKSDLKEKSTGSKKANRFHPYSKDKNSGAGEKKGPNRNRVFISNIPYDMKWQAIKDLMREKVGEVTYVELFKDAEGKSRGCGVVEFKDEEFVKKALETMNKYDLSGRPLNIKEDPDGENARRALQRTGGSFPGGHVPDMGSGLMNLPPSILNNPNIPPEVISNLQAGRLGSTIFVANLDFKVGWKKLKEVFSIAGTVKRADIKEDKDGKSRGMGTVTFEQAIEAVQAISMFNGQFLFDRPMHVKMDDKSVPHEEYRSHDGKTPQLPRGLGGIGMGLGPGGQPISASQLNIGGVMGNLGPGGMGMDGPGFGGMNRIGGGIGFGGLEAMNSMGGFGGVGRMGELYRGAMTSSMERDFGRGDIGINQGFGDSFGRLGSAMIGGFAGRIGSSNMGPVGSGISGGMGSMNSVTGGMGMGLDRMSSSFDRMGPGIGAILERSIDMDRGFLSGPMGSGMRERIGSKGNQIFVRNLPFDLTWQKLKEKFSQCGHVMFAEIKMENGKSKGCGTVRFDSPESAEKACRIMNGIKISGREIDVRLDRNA
UniProt Q9Y3C1: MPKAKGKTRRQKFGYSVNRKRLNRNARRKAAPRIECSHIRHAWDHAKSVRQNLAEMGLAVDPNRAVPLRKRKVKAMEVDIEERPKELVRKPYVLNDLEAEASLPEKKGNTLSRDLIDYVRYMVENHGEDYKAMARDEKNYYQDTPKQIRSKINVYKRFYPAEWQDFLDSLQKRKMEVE
UniProt Q6IAN0: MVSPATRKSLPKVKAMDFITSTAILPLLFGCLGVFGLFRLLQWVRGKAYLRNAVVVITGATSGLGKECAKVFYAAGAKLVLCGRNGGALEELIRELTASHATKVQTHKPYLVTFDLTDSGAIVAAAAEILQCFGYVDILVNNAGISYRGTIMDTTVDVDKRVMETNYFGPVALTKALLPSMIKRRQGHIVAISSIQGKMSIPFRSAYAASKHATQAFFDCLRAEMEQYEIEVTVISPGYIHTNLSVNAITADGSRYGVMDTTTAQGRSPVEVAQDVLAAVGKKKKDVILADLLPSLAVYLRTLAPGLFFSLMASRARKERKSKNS
UniProt A6H8Y1: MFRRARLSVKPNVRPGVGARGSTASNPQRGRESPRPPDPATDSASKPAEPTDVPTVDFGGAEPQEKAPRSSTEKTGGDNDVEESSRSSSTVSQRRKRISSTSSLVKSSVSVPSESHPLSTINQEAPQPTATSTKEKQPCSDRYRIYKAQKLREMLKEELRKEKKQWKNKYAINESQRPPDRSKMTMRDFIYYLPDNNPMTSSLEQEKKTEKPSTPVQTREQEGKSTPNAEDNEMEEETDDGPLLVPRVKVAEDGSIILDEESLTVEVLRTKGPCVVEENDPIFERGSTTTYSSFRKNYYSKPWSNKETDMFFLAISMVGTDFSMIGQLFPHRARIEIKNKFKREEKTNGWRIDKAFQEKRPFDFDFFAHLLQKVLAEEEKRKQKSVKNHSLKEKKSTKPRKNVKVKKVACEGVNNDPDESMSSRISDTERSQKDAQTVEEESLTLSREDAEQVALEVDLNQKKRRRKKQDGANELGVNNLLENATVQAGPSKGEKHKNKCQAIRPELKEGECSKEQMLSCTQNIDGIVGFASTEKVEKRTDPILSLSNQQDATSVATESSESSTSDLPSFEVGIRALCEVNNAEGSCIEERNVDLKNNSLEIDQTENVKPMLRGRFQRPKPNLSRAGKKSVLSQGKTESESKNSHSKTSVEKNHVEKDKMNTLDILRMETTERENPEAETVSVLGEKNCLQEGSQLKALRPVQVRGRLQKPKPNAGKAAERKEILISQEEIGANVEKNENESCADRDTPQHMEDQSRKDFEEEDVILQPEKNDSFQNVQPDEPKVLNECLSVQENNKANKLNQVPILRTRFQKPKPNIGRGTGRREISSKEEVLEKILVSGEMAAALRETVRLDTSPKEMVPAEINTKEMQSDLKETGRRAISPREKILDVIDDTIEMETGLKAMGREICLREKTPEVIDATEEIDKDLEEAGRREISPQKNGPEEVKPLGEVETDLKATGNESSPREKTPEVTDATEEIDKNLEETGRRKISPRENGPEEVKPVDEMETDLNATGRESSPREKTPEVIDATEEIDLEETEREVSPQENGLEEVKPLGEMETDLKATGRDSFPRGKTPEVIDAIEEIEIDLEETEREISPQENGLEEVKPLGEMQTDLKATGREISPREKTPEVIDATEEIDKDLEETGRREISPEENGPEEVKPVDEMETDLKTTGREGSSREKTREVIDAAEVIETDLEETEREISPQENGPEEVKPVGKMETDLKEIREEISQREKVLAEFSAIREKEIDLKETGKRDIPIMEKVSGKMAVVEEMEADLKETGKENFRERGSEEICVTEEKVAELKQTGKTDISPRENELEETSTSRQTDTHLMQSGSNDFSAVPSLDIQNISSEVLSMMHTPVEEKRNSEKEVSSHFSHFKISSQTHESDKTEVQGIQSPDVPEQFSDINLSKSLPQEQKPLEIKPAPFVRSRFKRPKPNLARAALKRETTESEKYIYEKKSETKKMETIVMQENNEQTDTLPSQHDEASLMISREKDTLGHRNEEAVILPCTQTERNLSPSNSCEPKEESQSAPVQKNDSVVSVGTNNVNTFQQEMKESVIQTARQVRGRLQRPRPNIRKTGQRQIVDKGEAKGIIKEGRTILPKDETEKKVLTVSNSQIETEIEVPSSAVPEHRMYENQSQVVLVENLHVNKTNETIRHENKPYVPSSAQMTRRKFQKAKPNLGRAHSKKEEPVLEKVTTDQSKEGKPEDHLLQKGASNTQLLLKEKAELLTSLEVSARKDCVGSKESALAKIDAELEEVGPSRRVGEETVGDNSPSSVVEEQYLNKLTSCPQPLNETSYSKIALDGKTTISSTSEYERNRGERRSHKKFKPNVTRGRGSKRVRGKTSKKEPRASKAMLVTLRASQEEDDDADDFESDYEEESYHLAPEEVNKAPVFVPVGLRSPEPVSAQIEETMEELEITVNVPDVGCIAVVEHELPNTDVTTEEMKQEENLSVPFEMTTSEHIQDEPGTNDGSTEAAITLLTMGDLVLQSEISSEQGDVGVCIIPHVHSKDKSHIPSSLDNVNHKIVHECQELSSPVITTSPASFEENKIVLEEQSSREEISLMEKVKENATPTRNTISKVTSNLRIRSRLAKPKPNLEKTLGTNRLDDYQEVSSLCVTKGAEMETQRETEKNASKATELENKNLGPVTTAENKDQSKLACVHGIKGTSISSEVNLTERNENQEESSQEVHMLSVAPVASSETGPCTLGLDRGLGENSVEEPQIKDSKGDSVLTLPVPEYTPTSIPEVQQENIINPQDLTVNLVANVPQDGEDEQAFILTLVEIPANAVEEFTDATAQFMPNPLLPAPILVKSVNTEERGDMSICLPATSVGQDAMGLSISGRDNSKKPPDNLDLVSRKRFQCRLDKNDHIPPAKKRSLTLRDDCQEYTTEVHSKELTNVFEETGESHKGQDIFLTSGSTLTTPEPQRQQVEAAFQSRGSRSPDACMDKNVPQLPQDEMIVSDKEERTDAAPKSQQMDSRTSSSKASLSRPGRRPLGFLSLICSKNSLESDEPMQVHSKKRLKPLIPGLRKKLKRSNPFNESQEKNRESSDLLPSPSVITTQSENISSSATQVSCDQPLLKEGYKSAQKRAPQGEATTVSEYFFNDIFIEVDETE
UniProt O60427: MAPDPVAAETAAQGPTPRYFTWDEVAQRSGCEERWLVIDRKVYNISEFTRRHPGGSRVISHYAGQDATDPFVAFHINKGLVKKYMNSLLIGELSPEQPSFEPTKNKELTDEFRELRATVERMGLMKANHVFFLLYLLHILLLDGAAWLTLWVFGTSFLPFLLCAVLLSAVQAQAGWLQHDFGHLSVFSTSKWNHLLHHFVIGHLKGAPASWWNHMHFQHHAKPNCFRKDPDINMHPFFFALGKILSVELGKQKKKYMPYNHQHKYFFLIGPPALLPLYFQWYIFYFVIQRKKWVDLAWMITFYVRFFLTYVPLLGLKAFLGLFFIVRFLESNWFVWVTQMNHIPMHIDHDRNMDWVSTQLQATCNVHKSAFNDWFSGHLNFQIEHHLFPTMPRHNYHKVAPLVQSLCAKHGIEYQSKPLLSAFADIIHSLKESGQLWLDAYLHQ
UniProt O75586: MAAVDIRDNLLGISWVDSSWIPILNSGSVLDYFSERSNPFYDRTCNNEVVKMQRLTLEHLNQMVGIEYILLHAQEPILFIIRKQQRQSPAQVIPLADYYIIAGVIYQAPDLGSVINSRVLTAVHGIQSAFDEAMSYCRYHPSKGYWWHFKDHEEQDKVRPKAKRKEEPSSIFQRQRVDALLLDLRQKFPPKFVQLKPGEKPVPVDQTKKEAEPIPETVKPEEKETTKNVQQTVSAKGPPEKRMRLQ
UniProt Q53H96: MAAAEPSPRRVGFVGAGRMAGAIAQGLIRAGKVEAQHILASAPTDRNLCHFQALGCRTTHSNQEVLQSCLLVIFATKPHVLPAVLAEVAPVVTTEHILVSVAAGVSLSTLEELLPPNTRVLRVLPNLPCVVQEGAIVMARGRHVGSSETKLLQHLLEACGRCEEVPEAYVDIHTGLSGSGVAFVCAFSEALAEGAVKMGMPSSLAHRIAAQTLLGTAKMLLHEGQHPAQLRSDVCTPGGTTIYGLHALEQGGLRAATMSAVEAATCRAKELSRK
UniProt P29728: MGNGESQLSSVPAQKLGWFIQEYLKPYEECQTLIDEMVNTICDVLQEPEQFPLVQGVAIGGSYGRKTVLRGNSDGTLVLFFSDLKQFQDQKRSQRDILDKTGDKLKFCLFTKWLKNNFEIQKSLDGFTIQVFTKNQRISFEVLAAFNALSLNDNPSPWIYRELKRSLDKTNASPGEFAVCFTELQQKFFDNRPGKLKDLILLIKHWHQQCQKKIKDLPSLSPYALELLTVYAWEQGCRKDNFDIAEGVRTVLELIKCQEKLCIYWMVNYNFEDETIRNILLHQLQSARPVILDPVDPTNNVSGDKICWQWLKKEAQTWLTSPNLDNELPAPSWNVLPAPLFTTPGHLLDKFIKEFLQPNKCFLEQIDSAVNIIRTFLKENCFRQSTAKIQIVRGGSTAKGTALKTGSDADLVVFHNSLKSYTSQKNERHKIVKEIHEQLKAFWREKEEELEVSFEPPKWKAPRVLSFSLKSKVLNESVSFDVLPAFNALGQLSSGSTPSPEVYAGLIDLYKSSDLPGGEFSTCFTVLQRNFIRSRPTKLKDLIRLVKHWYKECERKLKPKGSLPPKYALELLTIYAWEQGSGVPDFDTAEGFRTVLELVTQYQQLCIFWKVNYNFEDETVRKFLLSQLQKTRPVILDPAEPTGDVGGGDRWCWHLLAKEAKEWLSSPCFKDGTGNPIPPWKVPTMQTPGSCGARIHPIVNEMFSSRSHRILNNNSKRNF
UniProt P25440, whole entry, looked up: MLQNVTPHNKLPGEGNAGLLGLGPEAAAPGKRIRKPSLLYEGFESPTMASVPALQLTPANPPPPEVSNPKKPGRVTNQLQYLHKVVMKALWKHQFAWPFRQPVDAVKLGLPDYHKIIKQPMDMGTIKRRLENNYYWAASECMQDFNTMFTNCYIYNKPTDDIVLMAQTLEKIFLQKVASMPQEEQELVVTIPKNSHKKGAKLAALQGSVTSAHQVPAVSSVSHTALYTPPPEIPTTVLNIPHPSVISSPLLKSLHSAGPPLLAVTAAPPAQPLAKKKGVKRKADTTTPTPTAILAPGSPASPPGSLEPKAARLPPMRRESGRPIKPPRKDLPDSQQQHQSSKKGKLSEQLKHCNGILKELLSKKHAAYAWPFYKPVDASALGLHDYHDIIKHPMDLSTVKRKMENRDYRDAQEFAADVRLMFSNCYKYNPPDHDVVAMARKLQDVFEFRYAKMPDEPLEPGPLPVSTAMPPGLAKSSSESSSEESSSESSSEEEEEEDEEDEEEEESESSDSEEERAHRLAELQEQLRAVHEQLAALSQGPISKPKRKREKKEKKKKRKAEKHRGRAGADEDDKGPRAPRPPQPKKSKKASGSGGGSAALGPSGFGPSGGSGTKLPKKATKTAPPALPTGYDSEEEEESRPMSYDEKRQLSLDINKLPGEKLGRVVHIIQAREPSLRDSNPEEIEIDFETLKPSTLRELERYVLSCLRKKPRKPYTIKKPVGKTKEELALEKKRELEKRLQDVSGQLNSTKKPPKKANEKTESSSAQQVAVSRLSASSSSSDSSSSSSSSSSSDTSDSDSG
UniProt Q9H2P9: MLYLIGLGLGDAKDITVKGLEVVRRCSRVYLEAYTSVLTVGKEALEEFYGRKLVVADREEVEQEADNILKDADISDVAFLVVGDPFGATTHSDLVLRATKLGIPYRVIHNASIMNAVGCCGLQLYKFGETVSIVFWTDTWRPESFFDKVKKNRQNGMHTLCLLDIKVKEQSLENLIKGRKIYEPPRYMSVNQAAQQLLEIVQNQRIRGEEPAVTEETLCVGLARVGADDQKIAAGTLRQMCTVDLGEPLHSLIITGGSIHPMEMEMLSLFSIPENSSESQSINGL

Compound: Nc1ncnc2c1ncn2[C@@H]1O[C@H](COP(=O)(O)OP(=O)(O)NP(=O)(O)O)[C@@H](O)[C@H]1O [adenylyl imidodiphosphate]
Test: NP40-soluble protein abundance relative to vehicle (solubility fold change) (ratio); higher = more soluble protein in presence of AMP-PNP
Procedure, shortened: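 Crude Jurkat lysate, prepared by Dounce homogenisation, was exposed to eight concentrations from 0.1 to 10 mM for 10 min at room temperature and then 3 min at 37 °C. Solubilisation used 0.8% NP40 with benzonase for 60 min at 4 °C, followed by ultracentrifugation and TMT labelling of the supernatant for LC-MS/MS. After vsn normalisation of intensities, each value is the fold change against the detergent-processed vehicle within each replicate, across three independent experiments.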

Target	NP40-soluble protein abundance (concentration: 1mM)	NP40-soluble protein abundance (concentration: 2mM)	NP40-soluble protein abundance (concentration: 4mM)	NP40-soluble protein abundance (concentration: 6mM)	NP40-soluble protein abundance (concentration: 8mM)	NP40-soluble protein abundance (concentration: 10mM)
A0A0J9YWL0|Q9Y4K1 (UniProt Q9Y4K1)	1.03 ± 0.019	1.03 ± 0.011	1.02 ± 0.026	0.9883 ± 0.0081	0.9876 ± 0.007	0.995 ± 0.012
A0A0A6YYD5|A0A0B4J2E0|A0A5A8 and related entries (UniProt P01733+A0A5A8)	0.982 ± 0.023	0.984 ± 0.041	0.98 ± 0.058	0.98 ± 0.033	0.95 ± 0.021	0.971 ± 0.029
A0A0A0MR39|Q9P2K5-3|A0A0A0MQW0 (UniProt Q9P2K5)	1.04 ± 0.024	1.11 ± 0.036	1.123 ± 0.0095	1.12 ± 0.026	1.16 ± 0.044	1.19 ± 0.026
A0A0D9SFL3|B0QYK0 and related entries (UniProt Q01844)	1.01 ± 0.014	1.05 ± 0.069	0.992 ± 0.041	1.01 ± 0.02	1.01 ± 0.029	0.979 ± 0.048
A0A0B4J1V9|Q9NRZ9 and related entries (UniProt Q9NRZ9)	1.01 ± 0.037	0.991 ± 0.027	1.06 ± 0.042	1.08 ± 0.047	1.11 ± 0.063	1.09 ± 0.05
A0A087X2G6|A0A0C4DGU5|D6RIC3 and related entries (UniProt Q9Y3C1)	1.02 ± 0.071	1.01 ± 0.049	1 ± 0.053	0.993 ± 0.023	1.01 ± 0.039	1.01 ± 0.058
A0A087X1Z1|A0A0G2JPW5|A0A0G2JQX1|A0A0G2JSA7|Q96RT8 and related entries (UniProt Q96RT8)	0.946 ± 0.021	1 ± 0.057	0.951 ± 0.032	0.972 ± 0.029	0.962 ± 0.018	0.96 ± 0.016
A0A0A0MSM3|P46939 and related entries (UniProt P46939)	1.01 ± 0.024	1.03 ± 0.037	1 ± 0.018	0.978 ± 0.025	0.951 ± 0.012	0.98 ± 0.024
A0A0C4DGQ8|Q6IAN0 (UniProt Q6IAN0)	0.984 ± 0.036	0.96 ± 0.038	0.969 ± 0.026	1.04 ± 0.024	1.04 ± 0.029	1.02 ± 0.03
A0A0G2JNU3|A6H8Y1 and related entries (UniProt A6H8Y1)	1.05 ± 0.041	1.087 ± 0.0063	1.12 ± 0.056	1.17 ± 0.067	1.12 ± 0.07	1.22 ± 0.046
A0A0A0MR51|O60427 (UniProt O60427)	1.01 ± 0.034	0.994 ± 0.017	1.01 ± 0.038	0.981 ± 0.013	1.01 ± 0.029	1.02 ± 0.029
A0A087WZV8|A0A0G2JN66 (UniProt P01850)	1.03 ± 0.05	0.913 ± 0.028	1.01 ± 0.048	0.979 ± 0.051	1.04 ± 0.013	1.02 ± 0.032
A0A087WXV6|Q96G74 and related entries (UniProt Q96G74)	1.05 ± 0.037	1.06 ± 0.039	1.06 ± 0.034	1.02 ± 0.037	1.01 ± 0.047	1.04 ± 0.068
A0A087WYL7|G3V4A5 and related entries (UniProt O75586)	0.97 ± 0.036	1.01 ± 0.047	0.991 ± 0.036	0.997 ± 0.062	0.977 ± 0.083	0.994 ± 0.083
A0A087WY82|Q9Y624 (UniProt Q9Y624)	1.02 ± 0.057	1.05 ± 0.079	0.987 ± 0.031	0.994 ± 0.033	0.987 ± 0.02	1 ± 0.052
A0A0A0MS70|A0A0A0MST0|H0Y4G9 and related entries (UniProt Q99836)	0.99 ± 0.013	0.965 ± 0.025	0.999 ± 0.035	0.987 ± 0.053	0.984 ± 0.04	0.994 ± 0.03
A0A0A0MQS1|Q53H96 (UniProt Q53H96)	1.01 ± 0.036	1.01 ± 0.016	1.06 ± 0.036	1.03 ± 0.029	1.02 ± 0.045	1.05 ± 0.052
A0A087X0V5|P29728 and related entries (UniProt P29728)	1.13 ± 0.0059	1.07 ± 0.091	1.26 ± 0.049	1.24 ± 0.086	1.358 ± 0.011	1.29 ± 0.02
A0A0G2JK44|A0A140T9E9|H0Y6K2 and related entries (UniProt P25440)	1.02 ± 0.029	1.07 ± 0.038	1.08 ± 0.021	1.11 ± 0.076	1.13 ± 0.049	1.16 ± 0.043
A0A0C4DGT4|Q643R3 (UniProt Q643R3)	0.998 ± 0.03	1 ± 0.05	1.03 ± 0.045	1.01 ± 0.035	1.01 ± 0.016	0.992 ± 0.029
A0A087WXP7|Q9H2P9 and related entries (UniProt Q9H2P9)	0.95 ± 0.027	0.982 ± 0.034	0.969 ± 0.022	0.936 ± 0.021	0.947 ± 0.017	0.961 ± 0.048
A0A0U1RRK1|F6XEV2 and related entries (UniProt Q9BPX6)	1 ± 0.049	0.982 ± 0.043	1.02 ± 0.039	1.01 ± 0.034	1.03 ± 0.033	1.02 ± 0.039
A0A0C4DGT6|Q96AP0 and related entries (UniProt Q96AP0)	1.03 ± 0.026	1.04 ± 0.039	1.06 ± 0.047	1.02 ± 0.012	1.02 ± 0.032	1.03 ± 0.032
A0A0U1RQK7|A0A0A0MSA7|O43432 and related entries (UniProt O43432)	1.007 ± 0.0043	1.017 ± 0.0077	1.02 ± 0.014	1.02 ± 0.063	1.02 ± 0.058	1.01 ± 0.054
A0A0A0MRR3|Q7Z7C8 and related entries (UniProt Q7Z7C8)	1.02 ± 0.011	1.1 ± 0.09	1.04 ± 0.025	1 ± 0.017	1.01 ± 0.039	1.03 ± 0.045
A0A087X211|Q8TCG1 and related entries (UniProt Q8TCG1)	1.03 ± 0.035	1.04 ± 0.029	0.97 ± 0.029	0.934 ± 0.042	0.9027 ± 0.0049	0.92 ± 0.017
A0A096LPI6|A0A0B4J2D5|P30042 (UniProt P30042)	0.991 ± 0.017	1.05 ± 0.022	0.9549 ± 0.0053	0.988 ± 0.022	0.952 ± 0.031	0.9411 ± 0.007
A0A087WXM6|A0A0A6YYL6|J3KRX5 and related entries (UniProt P18621)	0.984 ± 0.07	0.958 ± 0.046	0.936 ± 0.071	0.871 ± 0.025	0.787 ± 0.052	0.962 ± 0.11

Single records (already shown). Values in the order: NP40-soluble protein abundance (concentration: 1mM)	NP40-soluble protein abundance (concentration: 2mM)	NP40-soluble protein abundance (concentration: 4mM)	NP40-soluble protein abundance (concentration: 6mM)	NP40-soluble protein abundance (concentration: 8mM)	NP40-soluble protein abundance (concentration: 10mM)
A0A087X211|Q8TCG1 and related entries (UniProt Q8TCG1) in the list: 1.03 ± 0.035	1.04 ± 0.029	0.97 ± 0.029	0.934 ± 0.042	0.9027 ± 0.0049	0.92 ± 0.017
A0A0C4DGQ8|Q6IAN0 (UniProt Q6IAN0) in the list: 0.984 ± 0.036	0.96 ± 0.038	0.969 ± 0.026	1.04 ± 0.024	1.04 ± 0.029	1.02 ± 0.03
